One substance from PMC4825924 can be followed below.

The assay addresses T1, AkrA (full-length cDNA in pGBKT7) (A. nidulans) (UniProt Q5B0V6).
T1 sequence: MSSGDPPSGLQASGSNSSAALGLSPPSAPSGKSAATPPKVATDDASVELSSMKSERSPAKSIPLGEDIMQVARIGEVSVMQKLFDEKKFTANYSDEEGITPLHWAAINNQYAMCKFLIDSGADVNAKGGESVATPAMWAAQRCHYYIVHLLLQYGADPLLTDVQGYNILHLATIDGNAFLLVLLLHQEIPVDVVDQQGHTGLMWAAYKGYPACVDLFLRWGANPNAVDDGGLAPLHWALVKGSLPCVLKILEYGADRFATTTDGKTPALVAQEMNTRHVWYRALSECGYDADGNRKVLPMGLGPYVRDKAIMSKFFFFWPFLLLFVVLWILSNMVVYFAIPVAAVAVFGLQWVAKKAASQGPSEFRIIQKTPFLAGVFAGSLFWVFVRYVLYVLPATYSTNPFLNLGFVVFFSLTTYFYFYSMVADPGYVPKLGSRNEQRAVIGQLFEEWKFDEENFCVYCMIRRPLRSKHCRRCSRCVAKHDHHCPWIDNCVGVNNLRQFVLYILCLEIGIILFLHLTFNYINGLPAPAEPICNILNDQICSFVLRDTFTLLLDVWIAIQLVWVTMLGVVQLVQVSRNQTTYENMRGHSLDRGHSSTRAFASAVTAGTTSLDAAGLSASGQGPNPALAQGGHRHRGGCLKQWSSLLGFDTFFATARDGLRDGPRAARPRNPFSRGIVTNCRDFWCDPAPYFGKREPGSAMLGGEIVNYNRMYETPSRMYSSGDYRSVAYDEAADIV
Kind of assay: two-hybrid; S. cerevisiae AH109, Matchmaker system; AkrA on GAL4 DNA-BD (pGBKT7), partners on GAL4 AD (pGADT7); growth on high-stringency medium SD/-Ade/-His/-Leu/-Trp.

No constants are given. Whether binding was seen depends on the method and setting.

Take “MidA (full-length cDNA in pGADT7) (A. nidulans)”: the binding result is on record as “no binding”.
